# Reference: the supplement of paper PMC8728848
# The other results are listed elsewhere or left out.
# B1: SabA (Helicobacter pylori) (protein)
# chain: MGSSHHHHHHSSGLVPRGSHMENLYFQGEDNGFFVSAGYQIGEAVQMVKNTGELKNLNEKYEQLSQYLNQVASLKQSIQNANNIELVNSSLNYLKSFTNNNYNSTTQSPIFNAVQAVITSVLGFWSLYAGNYFTFFVGKKVGDSGQPASVQGNPPFKTIIENCSGIENCAMDQTTYDKMKKLAEDLQAAQTNSATKGNNLCALSGCAATDSTSNPPNSTVSNALNLAQQLMDLIANTKTAMMWKNIVISGVSNTSGAITSTNYPTQYAVFNNIKAMIPILQQAVTLSQSNHTLSASLQAQATGSQTNPKFAKDIYTFAQNQKQVISYAQDIFNLFNSIPAEQYKYLEKAYLKIPNAGSTPTNPYRQVVNLNQEVQTIKNNVSYYGNRVDAALSVARDVYNLKSNQAEIVTAYNDAKTLSEEISKLPHNQVNTKDIVTLPYDKNAPAAGQSNYQINPEQQSNLNQALAAMSNNPFKKVGMISSQNNNGA
# Tests used:
# Assay in all cases: glycan array binding signal (z-score within array); higher = stronger binding
# Conditions in all cases: glycan notation: IUPAC condensed, linker removed
# [1] = molecular target: Man(a1-2)Man(a1-3)[Man(a1-2)Man(a1-6)]Man
# How it was run: (§1)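 The binding signal is a Z-score computed within each array. Data were drawn from 3228 arrays in the Consortium for Functional Glycomics database, restricted to those with a known protein sequence. Scores were averaged over arrays of the same protein sequence at different concentrations or buffers, and over linkers, and negative values can be taken as non-binding.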
# [2] = molecular target: Man(a1-2)Man(a1-3)[Man(a1-2)Man(a1-6)]Man(a1-6)[Man(a1-2)Man(a1-2)Man(a1-3)]Man
# How it was run: as §1
# [3] = molecular target: Man(a1-2)Man(a1-3)[Man(a1-2)Man(a1-6)]Man(a1-6)[Man(a1-2)Man(a1-2)Man(a1-3)]Man(b1-4)GlcNAc(b1-4)GlcNAc
# How it was run: as §1
# [4] = molecular target: Man(a1-2)Man(a1-3)[Man(a1-6)]Man(a1-6)[Man(a1-2)Man(a1-3)]Man(b1-4)GlcNAc(b1-4)GlcNAc
# How it was run: as §1
# [5] = molecular target: Man(a1-2)Man(a1-6)[Man(a1-3)]Man(a1-6)[Man(a1-2)Man(a1-2)Man(a1-3)]Man
# How it was run: as §1
# [6] = molecular target: Man(a1-2)Man(a1-6)[Man(a1-3)]Man(a1-6)[Man(a1-2)Man(a1-2)Man(a1-3)]Man(b1-4)GlcNAc(b1-4)GlcNAc
# How it was run: as §1
# Man(a1-3)[Man(a1-6)]Man = molecular target: Man(a1-3)[Man(a1-6)]Man
# How it was run: as §1
# [7] = molecular target: Man(a1-3)[Man(a1-6)]Man(a1-6)[Man(a1-2)Man(a1-3)]Man(b1-4)GlcNAc(b1-4)GlcNAc
# How it was run: as §1
# [8] = molecular target: Man(a1-3)[Man(a1-6)]Man(a1-6)[Man(a1-3)]Man
# How it was run: as §1
# [9] = molecular target: Man(a1-3)[Man(a1-6)]Man(a1-6)[Man(a1-3)]Man(b1-4)GlcNAc(b1-4)GlcNAc
# How it was run: as §1
# [10] = molecular target: Man(a1-3)[Man(a1-6)]Man(b1-4)GlcNAc(b1-4)GlcNAc
# How it was run: as §1
# [11] = molecular target: Man(a1-3)[Man(a1-6)]Man(b1-4)GlcNAc(b1-4)[Fuc(a1-6)]GlcNAc
# How it was run: as §1
# Man(a1-6)Man = molecular target: Man(a1-6)Man
# How it was run: as §1
# Man(b1-4)GlcNAc = molecular target: Man(b1-4)GlcNAc
# How it was run: as §1
# MurNAc(b1-4)GlcNAc = molecular target: MurNAc(b1-4)GlcNAc
# How it was run: as §1
# Neu5Ac(a2-3)Gal = molecular target: Neu5Ac(a2-3)Gal
# How it was run: as §1
# [12] = molecular target: Neu5Ac(a2-3)Gal(b1-3)GalNAc
# How it was run: as §1
# [13] = molecular target: Neu5Ac(a2-3)Gal(b1-3)GalNAc(b1-3)Gal(a1-4)Gal(b1-4)Glc
# How it was run: as §1
# [14] = molecular target: Neu5Ac(a2-3)Gal(b1-3)GalNAc(b1-4)[Neu5Ac(a2-3)]Gal(b1-4)Glc
# How it was run: as §1
# [15] = molecular target: Neu5Ac(a2-3)Gal(b1-3)GalNAc(b1-4)[Neu5Ac(a2-8)Neu5Ac(a2-3)]Gal(b1-4)Glc
# How it was run: as §1
# [16] = molecular target: Neu5Ac(a2-3)Gal(b1-3)GalNAc6S
# How it was run: as §1
# [17] = molecular target: Neu5Ac(a2-3)Gal(b1-3)GlcNAc
# How it was run: as §1
# [18] = molecular target: Neu5Ac(a2-3)Gal(b1-3)GlcNAc(b1-2)Man
# How it was run: as §1
# [19] = molecular target: Neu5Ac(a2-3)Gal(b1-3)GlcNAc(b1-2)Man(a1-3)[GlcNAc(b1-4)][Neu5Ac(a2-3)Gal(b1-3)GlcNAc(b1-2)Man(a1-6)]Man(b1-4)GlcNAc(b1-4)GlcNAc
# How it was run: as §1
# [20] = molecular target: Neu5Ac(a2-3)Gal(b1-3)GlcNAc(b1-2)Man(a1-3)[Neu5Ac(a2-3)Gal(b1-3)GlcNAc(b1-2)Man(a1-6)]Man(b1-4)GlcNAc(b1-4)GlcNAc
# How it was run: as §1
# [21] = molecular target: Neu5Ac(a2-3)Gal(b1-3)GlcNAc(b1-2)[Neu5Ac(a2-3)Gal(b1-3)GlcNAc(b1-4)]Man(a1-6)[Neu5Ac(a2-3)Gal(b1-3)GlcNAc(b1-2)Man(a1-3)]Man(b1-4)GlcNAc(b1-4)GlcNAc
# How it was run: as §1
# [22] = molecular target: Neu5Ac(a2-3)Gal(b1-3)GlcNAc(b1-3)Gal(b1-3)GlcNAc
# How it was run: as §1
# [23] = molecular target: Neu5Ac(a2-3)Gal(b1-3)GlcNAc(b1-3)Gal(b1-4)GlcNAc
# How it was run: as §1
# [24] = molecular target: Neu5Ac(a2-3)Gal(b1-3)GlcNAc(b1-3)GalNAc
# How it was run: as §1
# [25] = molecular target: Neu5Ac(a2-3)Gal(b1-3)GlcNAc(b1-4)Gal(b1-4)Glc
# How it was run: as §1
# [26] = molecular target: Neu5Ac(a2-3)Gal(b1-3)GlcNAc(b1-6)GalNAc
# How it was run: as §1
# [27] = molecular target: Neu5Ac(a2-3)Gal(b1-3)GlcNAc6S
# How it was run: as §1
# [28] = molecular target: Neu5Ac(a2-3)Gal(b1-3)[Fuc(a1-4)]GlcNAc
# How it was run: as §1
# [29] = molecular target: Neu5Ac(a2-3)Gal(b1-3)[Fuc(a1-4)]GlcNAc(b1-3)Gal(b1-3)[Fuc(a1-4)]GlcNAc
# How it was run: as §1
# [30] = molecular target: Neu5Ac(a2-3)Gal(b1-3)[Fuc(a1-4)]GlcNAc(b1-3)Gal(b1-4)[Fuc(a1-3)]GlcNAc
# How it was run: as §1
# [31] = molecular target: Neu5Ac(a2-3)Gal(b1-3)[GlcNAc(b1-6)]GalNAc
# How it was run: as §1
# [32] = molecular target: Neu5Ac(a2-3)Gal(b1-3)[Neu5Ac(a2-6)]GalNAc
# How it was run: as §1
binder,measurement,setting,value
B1,glycan array binding signal (z-score),[1],-0.459
same,glycan array binding signal (z-score),[2],-0.119
same,glycan array binding signal (z-score),[3],-0.148
same,glycan array binding signal (z-score),[4],-0.009
same,glycan array binding signal (z-score),[5],-0.091
same,glycan array binding signal (z-score),[6],0.194
same,glycan array binding signal (z-score),Man(a1-3)[Man(a1-6)]Man,0.183
same,glycan array binding signal (z-score),[7],0.278
same,glycan array binding signal (z-score),[8],0.018
same,glycan array binding signal (z-score),[9],0.145
same,glycan array binding signal (z-score),[10],-0.465
same,glycan array binding signal (z-score),[11],-0.191
same,glycan array binding signal (z-score),Man(a1-6)Man,-0.738
same,glycan array binding signal (z-score),Man(b1-4)GlcNAc,-0.002
same,glycan array binding signal (z-score),MurNAc(b1-4)GlcNAc,-0.054
same,glycan array binding signal (z-score),Neu5Ac(a2-3)Gal,-0.478
same,glycan array binding signal (z-score),[12],0.965
same,glycan array binding signal (z-score),[13],0.16
same,glycan array binding signal (z-score),[14],0.887
same,glycan array binding signal (z-score),[15],-0.312
same,glycan array binding signal (z-score),[16],-0.159
same,glycan array binding signal (z-score),[17],-0.231
same,glycan array binding signal (z-score),[18],-0.613
same,glycan array binding signal (z-score),[19],-0.379
same,glycan array binding signal (z-score),[20],1.79
same,glycan array binding signal (z-score),[21],0.359
same,glycan array binding signal (z-score),[22],-0.941
same,glycan array binding signal (z-score),[23],-0.789
same,glycan array binding signal (z-score),[24],-0.131
same,glycan array binding signal (z-score),[25],-0.865
same,glycan array binding signal (z-score),[26],-0.507
same,glycan array binding signal (z-score),[27],-0.559
same,glycan array binding signal (z-score),[28],-0.968
same,glycan array binding signal (z-score),[29],0.27
same,glycan array binding signal (z-score),[30],-0.152
same,glycan array binding signal (z-score),[31],-0.888
same,glycan array binding signal (z-score),[32],-0.285

# Another view of some results above.
binder | measurement | setting | value
B1 | glycan array binding signal (z-score) | [16] | -0.159
same | glycan array binding signal (z-score) | [17] | -0.231
